Results are given in words; binding and its absence hold for the method and conditions named. Binding seen in cells or lysates may run through a third protein. Sequences can lack the tags named with a protein.
Target: T1, recombinant GFP-ZNF692 (UniProt Q9BU19)
T1 sequence: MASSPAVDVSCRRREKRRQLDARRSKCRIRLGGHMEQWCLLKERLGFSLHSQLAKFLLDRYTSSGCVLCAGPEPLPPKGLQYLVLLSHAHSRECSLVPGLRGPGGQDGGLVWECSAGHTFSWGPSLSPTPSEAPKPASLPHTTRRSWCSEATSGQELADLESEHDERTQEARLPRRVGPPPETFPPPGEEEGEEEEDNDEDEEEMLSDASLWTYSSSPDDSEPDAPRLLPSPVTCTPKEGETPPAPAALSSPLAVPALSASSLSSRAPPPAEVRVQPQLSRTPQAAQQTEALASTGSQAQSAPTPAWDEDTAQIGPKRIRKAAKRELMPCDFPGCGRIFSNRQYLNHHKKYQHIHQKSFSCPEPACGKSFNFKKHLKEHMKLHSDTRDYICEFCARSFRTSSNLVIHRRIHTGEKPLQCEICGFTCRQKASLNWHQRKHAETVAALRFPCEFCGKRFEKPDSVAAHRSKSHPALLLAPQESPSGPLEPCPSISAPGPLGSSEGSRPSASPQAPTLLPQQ
Test: pull-down; purified recombinant GFP-ZNF692 WT or mutants on GFP-trap beads, incubated with DLD1 nuclear extracts overnight; immunoblot for NPM1, FBL, RPA40; only the target purified

Sequences of proteins named here, by UniProt entry; tags and fusion partners are left off.
UniProt O15160: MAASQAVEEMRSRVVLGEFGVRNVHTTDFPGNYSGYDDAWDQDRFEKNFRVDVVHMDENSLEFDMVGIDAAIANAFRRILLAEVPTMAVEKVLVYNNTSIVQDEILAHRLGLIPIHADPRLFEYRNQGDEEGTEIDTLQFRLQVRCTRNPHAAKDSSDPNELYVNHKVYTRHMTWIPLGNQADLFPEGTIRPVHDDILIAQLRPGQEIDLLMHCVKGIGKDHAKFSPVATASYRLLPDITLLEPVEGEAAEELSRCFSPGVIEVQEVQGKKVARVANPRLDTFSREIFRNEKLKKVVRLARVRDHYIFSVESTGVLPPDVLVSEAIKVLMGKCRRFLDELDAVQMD

Row | Molecule | binding
1 | RPA40 (from UniProt O15160 1-346) | no binding
2 | fibrillarin (FBL) (protein, UniProt P22087 1-321) MKPGFSPRGGGFGGRGGFGDRGGRGGRGGFGGGRGRGGGFRGRGRGGGGGGGGGGGGGRGGGGFHSGGNRGRGRGGKRGNQSGKNVMVEPHRHEGVFICRGKEDALVTKNLVPGESVYGEKRVSISEGDDKIEYRAWNPFRSKLAAAILGGVDQIHIKPGAKVLYLGAASGTTVSHVSDIVGPDGLVYAVEFSHRSGRDLINLAKKRTNIIPVIEDARHPHKYRMLIAMVDVIFADVAQPDQTRIVALNAHTFLRNGGHFVISIKANCIDSTASAEAVFASEVKKMQQENMKPQEQLTLEPYERDHAVVVGVYRPPPKVKN | no binding

From article PMC10956046
